Screen size: about 78,000 compounds; about 1,800 (2.3%) were called active. The shares of active, inactive and inconclusive entries below differ from those in the screen. No stated cut-off is given here; in the data, active means inhibition above about 30%; inconclusive means mostly about 10% to 28%; inactive means weaker than that.
Each compound was assayed against Interleukin-1 receptor-like 1 (Homo sapiens) (UniProt Q01638) (assay: blocks human ST2 binding to IL-33, primary screen, biochemical, AlphaLISA (AID 1259354)). Settings: AlphaLISA ST2-Fc/biotin-IL-33 interaction, 1 h; at 17 µM, active compounds read high.

Protein sequences, listed by entry. Tags and fused reporters are not part of them. Lines headed by an entry give the natural chain unless they say otherwise; changes in a name come on top.
UniProt Q01638: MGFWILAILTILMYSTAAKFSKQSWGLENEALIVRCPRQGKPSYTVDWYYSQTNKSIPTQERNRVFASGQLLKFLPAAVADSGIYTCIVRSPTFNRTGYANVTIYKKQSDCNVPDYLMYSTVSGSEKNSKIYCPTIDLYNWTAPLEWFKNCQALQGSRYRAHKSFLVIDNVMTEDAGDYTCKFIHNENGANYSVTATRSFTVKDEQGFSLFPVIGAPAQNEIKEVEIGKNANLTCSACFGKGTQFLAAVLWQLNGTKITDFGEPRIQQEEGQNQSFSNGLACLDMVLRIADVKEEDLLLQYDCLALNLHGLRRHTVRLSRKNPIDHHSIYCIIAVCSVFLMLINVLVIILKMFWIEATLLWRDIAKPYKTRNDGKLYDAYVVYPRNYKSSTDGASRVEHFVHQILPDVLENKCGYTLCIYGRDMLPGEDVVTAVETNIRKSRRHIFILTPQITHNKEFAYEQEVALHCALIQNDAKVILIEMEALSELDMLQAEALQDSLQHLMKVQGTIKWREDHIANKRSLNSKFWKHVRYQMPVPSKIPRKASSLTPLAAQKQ

Structure (SMILES) | inhibition
CCOc1ccc(C(=O)Nc2sc3c(c2C(N)=O)CCCC3)cc1[N+](=O)[O-] | inconclusive: 24%
CN1CCC(N2CCCC(C(=O)N3Cc4ccccc4C3)C2)CC1 (stereo not drawn) | inactive
Oc1ccccc1C1=NNC(c2ccc(Br)cc2)C1 (stereo not drawn) | inactive
O=C(Nc1cnn(Cc2ccc(Cl)cc2Cl)c1)c1noc2c1CCCC2 | inconclusive: 25%
Cc1c(Br)c([N+](=O)[O-])nn1CCCC(=O)Nc1sc2c(c1C#N)CCC2 | inconclusive: 21%
CCOc1ccc(N2C(=O)C(N3C(=O)c4ccccc4C3=O)C2c2ccc(F)cc2)cc1 (stereo not drawn) | inconclusive: 11%
CNC(=O)c1ccc(Cn2nc(C3CCNCC3)n(-c3ccccc3)c2=O)o1 | inconclusive: 11%
Nc1nc(-c2ccc(F)cc2)cc(C(F)(F)F)n1 | inconclusive: 15%
COCCN(CCOC)C(=O)[C@@H](C)C1CC[C@@]2(C)CC[C@H](NC(=O)CC(C)(C)C)[C@@H](C)[C@@H]2[C@H]1O (stereo partly drawn) | inconclusive: 11%
O=C(C[C@@H]1CCNC[C@@H]1Cc1cc(CSc2ccccc2)on1)N1CCC(Cc2ccccc2)CC1 | inconclusive: 20%
COc1ccc(C(O)(C#Cc2ccccc2)c2ccccc2)cc1 (stereo not drawn) | inactive
CCOC(=O)C1C(=O)C=C(c2cccs2)CC1c1ccccc1F (stereo not drawn) | inconclusive: 18%
Cc1cccn2c(=O)c3cc(C(=O)N4CCN(c5ccc(F)cc5)CC4)n(C)c3nc12 | inactive
N#Cc1c(NC(=O)CCCN2C(=O)c3ccccc3C2=O)sc2c1CCCCC2 | inconclusive: 13%
CC12COC3(C(=O)Nc4ccccc4Cl)CC1CCC32C (stereo not drawn) | inactive
COc1ccccc1-c1cc2n(C)c(C)c(CCC(=O)Nc3ccc(F)cc3)c(=O)n2n1 | inactive
O=C(Cn1c(=O)n(-c2ccccc2)c(=O)c2sccc21)N1CCCCCC1 | inconclusive: 12%
N[C@@H](CS(=O)O)C(=O)O | inconclusive: 17%
CCOC(=O)N1CCC(N2CCC3(CC2)C(=O)N(C)C(=O)N3CCc2ccc(OC)cc2)CC1 | inconclusive: 15%
O=C(Nc1ccc(N2CCOCC2)cc1)c1cccc([N+](=O)[O-])c1 | active: 30%

Structure (SMILES) | inhibition
CCc1ccccc1NC(=O)N1CCC(n2c(C)nc3cccnc32)CC1 | inconclusive: 14%
O=C(CSc1ncccn1)Nc1ccc(F)cc1 | inactive
CC(Oc1ccc(Cl)cc1Cl)C(=O)Nc1ccc(S(N)(=O)=O)cc1 (stereo not drawn) | inconclusive: 15%
CC(C)c1cc(C(=O)N2CCCC3(CN(C)C(=O)O3)C2)cs1 (stereo not drawn) | inactive
Nc1nc2n(n1)C(c1ccccc1)CC(c1ccc(F)cc1)N2 (stereo not drawn) | inconclusive: 15%
Cc1cc(N)c(-n2cc3c(c2-c2ccccc2)c(=O)n(C)c(=O)n3C)cc1C | inconclusive: 11%
COc1ccc(N=C2NC(=O)C(CO)(CO)S2)cc1 | inactive
COc1c(C)cc(C(=O)C2CCCN(Cc3cn[nH]c3C(=O)O)C2)cc1C (stereo not drawn) | inconclusive: 16%
O=C(c1ccc(Cl)cc1)N1CCN=C1SCc1ccccc1F | inactive
CC(=O)NCC1CCCN(Cc2cn(Cc3ccccc3)nc2-c2cc3ccccc3o2)C1 (stereo not drawn) | inconclusive: 10%
CCN(Cc1c(F)cccc1Cl)C(=O)c1cnn2ccn(C)c12 | inconclusive: 16%
Cc1ccc(C)c(CC(=O)N2C[C@@H](C(=O)O)C[C@@H](C(=O)N3CCCC3)C2)c1 | inactive
CN1CCN(C(=O)c2cc(F)c(F)cc2[N+](=O)[O-])CC1 | inconclusive: 13%
CCCCNc1nc2c(c(=O)n(Cc3cccc(Br)c3)c(=O)n2C)n1C | active: 32%
Cc1c(CC(=O)NCc2ccon2)c2c(n1Cc1ccccc1F)CCCC2=O | inconclusive: 12%
O=C(Cn1c(=O)n(Cc2ccccc2)c(=O)c2ccccc21)c1ccc(F)cc1 | inactive
O=C(CSc1c2c(nc3ccc(Cl)cc13)CCCC2)NCc1cccnc1 | inconclusive: 14%
CCCOC(=O)c1ccc(N2C(=O)C3CCC(C)CC3C2=O)cc1 (stereo not drawn) | inconclusive: 10%
CCOc1ccc(-c2csc(-c3cc4cc(OC)ccc4oc3=O)n2)cc1 | inconclusive: 11%
Cc1ccc(NC(=O)c2ccc(Cl)cc2Cl)c([N+](=O)[O-])c1 | inconclusive: 19%

Structural class, the entries above containing a cyano group.
Structure (SMILES) | inhibition
Cc1c(Br)c([N+](=O)[O-])nn1CCCC(=O)Nc1sc2c(c1C#N)CCC2 | inconclusive: 21%
N#Cc1c(NC(=O)CCCN2C(=O)c3ccccc3C2=O)sc2c1CCCCC2 | inconclusive: 13%

In a second layout: 2 of the compounds above.
Structure (SMILES),inhibition
COCCN(CCOC)C(=O)[C@@H](C)C1CC[C@@]2(C)CC[C@H](NC(=O)CC(C)(C)C)[C@@H](C)[C@@H]2[C@H]1O (stereo partly drawn),inconclusive: 11%
O=C(C[C@@H]1CCNC[C@@H]1Cc1cc(CSc2ccccc2)on1)N1CCC(Cc2ccccc2)CC1,inconclusive: 20%

The listing continues.

Structure (SMILES) | inhibition
COc1ccc(C2=CC(=O)N(CC(=O)O)c3ccccc3S2)cc1 | inconclusive: 22%
Cc1cc2c(c(=O)o1)C(c1ccccc1OCc1ccccc1Cl)C(C#N)=C(N)O2 (stereo not drawn) | inactive
Cc1cccn2c(=O)c3cc(C(=O)NCc4cccnc4)c(=N)n(CCOCCO)c3nc12 | inactive
O=C(NCCc1nc2cccnc2n1Cc1ccccc1)Nc1cccc(F)c1 | inconclusive: 20%
Cc1ccc(Nc2cc(C)nc(N3CCN(S(=O)(=O)c4cc(C)c(C)cc4C)CC3)n2)cc1 | inconclusive: 21%
CCOc1ccc(C2=Nn3c(nnc3C(F)(F)F)SC2)cc1 | inconclusive: 19%
CC(C)c1cc(C(=O)N2CCN(C(c3ccccc3)c3ccccc3)CC2)no1 | inconclusive: 15%
O=c1c(F)cn(C2CCCO2)c(=O)n1Cc1ccc(Cl)cc1 (stereo not drawn) | inconclusive: 11%
Cc1ccc(OCC(=O)Nc2cc(Cl)ccc2OCc2cc(=O)n3oc(C)cc3n2)cc1 | inconclusive: 14%
OC[C@@H]1O[C@H](CN(Cc2ccccn2)Cc2ccccn2)[C@H](N2CCN(c3ccc(F)cc3)CC2)[C@@H]1O | inactive
CCOc1cccc(C(=O)Nc2ccc(I)cc2Cl)c1 | inactive
O=C(O)CC1C(=O)NCCN1Cc1cccc(Oc2ccccc2)c1 (stereo not drawn) | inconclusive: 11%
Cc1cc(Nc2ccccc2)nc(Nc2ccc(NC(=O)c3ccc(F)cc3)cc2)n1 | inactive
Oc1cc(-c2cccc(Cl)c2)cc2c1OCCN(CCC1CCOC1)C2 (stereo not drawn) | inconclusive: 18%
CN1CCN(CC2CCOC2)CC12CCN(C(=O)CCC1CCCC1)CC2 (stereo not drawn) | inconclusive: 13%
Cc1ccc(C(c2sc3nc(C)nn3c2O)N2CC(C)CC(C)C2)cc1 (stereo not drawn) | inconclusive: 11%
Cc1ccc(-c2ccccc2)n1-c1ccc(C(=O)O)cc1 | inconclusive: 10%
CCCCCC(=O)N1CC[C@@H](CC(=O)NCCOC)[C@@H](CC)C1 | inconclusive: 15%

— PubChem BioAssay AID1259354 (Paczesny and Yang Labs, IUPUI and University of Michigan, 2018)
